{"sequences": {"note": "The chains behind the UniProt entries cited, without tags or fusion partners. Where a name states a change or a piece, a line headed by the entry shows the natural chain unless it says otherwise.", "UniProt Q6WUC2": "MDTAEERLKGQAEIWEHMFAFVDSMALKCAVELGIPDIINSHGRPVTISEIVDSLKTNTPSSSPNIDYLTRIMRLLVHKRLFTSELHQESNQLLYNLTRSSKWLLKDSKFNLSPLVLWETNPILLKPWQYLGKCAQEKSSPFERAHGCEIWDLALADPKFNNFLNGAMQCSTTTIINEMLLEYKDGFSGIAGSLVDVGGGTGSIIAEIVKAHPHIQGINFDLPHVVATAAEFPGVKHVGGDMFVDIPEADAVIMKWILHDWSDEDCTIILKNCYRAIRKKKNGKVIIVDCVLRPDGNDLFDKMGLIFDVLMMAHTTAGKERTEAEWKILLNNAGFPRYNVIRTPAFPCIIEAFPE"}, "source": "patent US7514251B2", "about": "“O-methyltransferases of tetrahydrobenzylisoquinoline alkaloid biosynthesis in Papaver somniferum” (priority 2003, dated 2009)", "key": {"[1]": {"molecular_target": "T1, PSOMT1 ((R,S)-reticuline 7-O-methyltransferase) (Papaver somniferum, UniProt Q6WUC2)", "T1 construct": "The full-length cDNA generated by RT-PCR was ligated into pFastBac HTa; His6 (N); made in house; host or cells: Spodoptera frugiperda Sf9 (baculovirus, pFastBac HTa)", "assay_type": "biochemical", "source_text": "(§1) Heterologous Expression and Enzyme Purification—The full-length cDNA generated by RT-PCR was ligated into pFastBac HTa that had been digested with restriction endonucleases BamHI and NotI. The recombinant plasmid was transposed into baculovirus DNA in the Escherichia coli strain DH10BAC (Life Technologies) and then transfected into Spodoptera frugiperda Sf9 cells according to the manufacturer's instructions. The insect cells were propagated and the recombinant virus was amplified according to (16,17). INSECT-XPRESS serum-free medium (Bio Whittaker) was used in the enzyme expression experiments. […]\n(§2) Enzyme assay and product identification: The O-methylation reactions catalysed by the two O-methyltransferases were assayed at least two times in duplicate according to Rüffer et al. (1983a; 1983b) as follows. […] The organic phase (300 μl) was added to 3 ml high flash point liquid scintillation cocktail (Packard) and the radioactivity quantified with a Beckman LS6000TA liquid scintillation counter.\n(§3) General Methods—Total RNA was isolated and RNA gels were run and blotted as described previously (20). […] The entire nucleotide sequence on both DNA strands of the full-length clone was determined by dideoxy cycle sequencing using internal DNA sequences for the design of deoxyoligonucleotides as sequencing primers. […]"}, "[2]": {"molecular_target": "T2, catechol O-methyltrasferase (COMT) (Rattus norvegicus, UniProt P22734)", "T2 construct": "catechol O-methyltrasferase (COMT) isolated from rat liver; host or cells: rat liver", "T2 sequence (P22734 1-264)": "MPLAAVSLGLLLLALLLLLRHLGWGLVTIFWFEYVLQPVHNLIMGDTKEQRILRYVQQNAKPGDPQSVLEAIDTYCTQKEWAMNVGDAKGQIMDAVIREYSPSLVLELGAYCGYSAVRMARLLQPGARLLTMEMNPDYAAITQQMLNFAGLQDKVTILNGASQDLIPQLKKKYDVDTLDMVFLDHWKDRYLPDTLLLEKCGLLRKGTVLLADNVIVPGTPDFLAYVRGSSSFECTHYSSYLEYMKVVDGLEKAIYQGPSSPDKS", "details": "rat liver COMT, literature ref 28; cited from earlier work"}, "[3]": {"molecular_target": "T3, PSOMT2 ((R,S)-norcoclaurine 6-O-methyltransferase) (Papaver somniferum, UniProt Q6WUC1)", "T3 construct": "The full-length cDNA generated by RT-PCR was ligated into pFastBac HTa; His6 (N); made in house; host or cells: Spodoptera frugiperda Sf9 (baculovirus, pFastBac HTa)", "T3 sequence (Q6WUC1 1-346)": "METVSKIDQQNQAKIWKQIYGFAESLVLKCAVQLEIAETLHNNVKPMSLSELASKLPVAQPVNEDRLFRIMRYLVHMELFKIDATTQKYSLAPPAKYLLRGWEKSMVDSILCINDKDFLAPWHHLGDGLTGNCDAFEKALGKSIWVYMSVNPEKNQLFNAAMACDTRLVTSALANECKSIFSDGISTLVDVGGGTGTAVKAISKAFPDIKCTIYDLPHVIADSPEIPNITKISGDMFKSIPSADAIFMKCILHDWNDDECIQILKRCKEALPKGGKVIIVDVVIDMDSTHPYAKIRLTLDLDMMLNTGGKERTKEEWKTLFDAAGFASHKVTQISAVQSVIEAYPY", "test": "Radioassay of recombinant PSOMT2 with [methyl-3H]-AdoMet (substrate specificity, kinetics, pH and temperature optima)", "assay_type": "biochemical", "details": "100% activity = 2.0 pmoles/sec/mg total protein", "source_text": "as §1, §2, §3"}}, "note": "At least one structure is not confirmed: it was looked up by name or label, or the drawing left a doubt. Some entries share one result that the patent states for a list of compounds."}
{"compound": "COc1cc(CC2c3cc(OC)c(O)cc3CCN2C)ccc1O", "note": "(racemic) [(R,S)-Isoorientaline]", "values": [{"measurement": "temperature optimum", "setting": "[1]; PSOMT1", "value": "37-41 °C"}]}
{"compound": "Oc1ccc(CC2NCCc3cc(O)c(O)cc32)cc1", "note": "(racemic) [norcoclaurine]", "values": [{"measurement": "ratio of O-methylation at the 6-hydroxy- and 7-hydroxy positions", "setting": "[2]", "value": "8:2"}]}
{"compound": "Oc1cc(O)c2cc(O)c(-c3ccc(O)c(O)c3)[o+]c2c1", "note": "[Cyanidin]", "values": [{"measurement": "Substrate specificity, relative activity of PSOMT1", "setting": "[1]; 100% activity = 1.5 pmoles/sec/mg total protein, radioassay", "value": 0, "unit": "%"}, {"measurement": "Substrate specificity, relative activity of PSOMT2", "setting": "[3]", "value": 0, "unit": "%"}]}
